{"source": "PubChem BioAssay AID1347075", "about": "(National Center for Advancing Translational Sciences (NCATS), 2019)", "note": "Among all 400,000 compounds or so, about 5,500 (1.4%) were called active. Inconclusive results, whose numbers are uncertain, are shown with a selection of clear calls. The call rests on the fitted dose curve; in most records, active means well fitted cell-killing curve with a large enough effect; inconclusive means small, poorly fitted or top-dose-only effect, or effect the other way; inactive means flat fitted curve, though single readings scatter. Potencies of inconclusive entries are doubtful fits and often do not repeat. Potency means the concentration at half of the fitted maximal effect.", "data": [{"assay": "qHTS assay for MDR1-selective chemotherapeutics: Primary screen using the parental adenocarcinoma cell KB-3-1; further: nearly all actives have a fitted effect of over 60% in size", "settings": "KB-3-1 viability, CellTiter-Glo ATP luminescence, 72 h; series mostly up to 46.1 µM", "method_in_brief": "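Using CellTiter-Glo luminescence, growth of non-resistant KB-3-1 adenocarcinoma cells is assessed 72 h after pin-tool compound addition at 37 °C. Normalized responses across the concentration series yield fitted curves.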", "values": [{"smiles": "COc1cc(OCc2ccccc2)c(C(=O)/C=C/c2ccc3c(c2)OCO3)c(OC)c1OC", "Potency": "inconclusive: 18.4 µM [cytotoxic, single point]"}, {"smiles": "O=C(O)c1ccc(N/N=C/c2ccc(-c3ccccc3)cc2)cc1", "Potency": "inconclusive: 20.6 µM [cytotoxic, single point]"}, {"smiles": "CCOC(=O)c1c(NC(=O)C(=O)N/N=C/c2ccc(OCC)cc2)sc2c1CCCCC2", "Potency": "inactive"}, {"smiles": "O=C(Nc1ccc(Cc2ccncc2)cc1)C1CCC(N2C(=O)C3C4C=CC(C5CC45)C3C2=O)CC1", "note": "(stereo not given)", "Potency": "inconclusive: 18.4 µM [cytotoxic, single point]"}, {"smiles": "O=C(NCCSCc1ccco1)c1ccc(CN2CCOCC2)cc1", "Potency": "inactive"}, {"smiles": "Cn1nc(C(=O)Nc2ccccc2N2CCCC2)c2ccccc2c1=O", "Potency": "inconclusive: 25.9 µM [cytotoxic, single point]"}, {"smiles": "Cc1ccc2nc(-c3ccc(N)cc3)sc2c1", "Potency": "inconclusive: 20.6 µM [cytotoxic, single point]"}, {"smiles": "CCOC1=C2[C@@H](CN(S(=O)(=O)c3ccc(C)cc3)[C@H]2c2ccccc2F)[C@H]2C(=O)N(CC)C(=O)[C@H]2C1", "Potency": "inactive"}, {"smiles": "Clc1cccc2c3c([nH]c12)CCNC3", "Potency": "inactive"}, {"smiles": "OC(CN1C=CCc2ccccc21)c1ccc(Cl)cc1Cl", "note": "(stereo not given)", "Potency": "inactive"}, {"smiles": "O=C(Cn1sc2ccccc2c1=O)Nc1ccccc1", "Potency": "inconclusive: 32.6 µM [cytotoxic, single point]"}, {"smiles": "Cc1ccccc1/C=C/c1cccc[n+]1C", "Potency": "inconclusive: 25.9 µM [cytotoxic, single point]"}, {"smiles": "Oc1ccc(CN2CCCCC2)c2cccnc12", "Potency": "inconclusive: 23.1 µM [cytotoxic, single point]"}, {"smiles": "CN(C)CCN1CCN(C2CN(Cc3ccc([N+](=O)[O-])cc3)S(=O)(=O)C2)CC1", "note": "(stereo not given)", "Potency": "inactive"}, {"smiles": "COc1ccccc1CNc1cc(CSc2ccc(Cl)cc2)nc(C)n1", "Potency": "inconclusive: 16.4 µM [cytotoxic, single point]"}, {"smiles": "COc1ccc(-n2nnnc2SCC(=O)Nc2c(C)n[nH]c2C)cc1", "Potency": "inconclusive: 2.31 µM [cytotoxic, full curve]"}, {"smiles": "CC(C)(C)c1ccc(C(=O)/C=C2\\NC(=O)CS2)cc1", "Potency": "inconclusive: 29.1 µM [cytotoxic, single point]"}, {"smiles": "CC(C)(C)CC(C)(C)c1ccc(OCC(=O)Nc2ccc(S(=O)(=O)Nc3ncccn3)cc2)cc1", "Potency": "inactive"}, {"smiles": "Nc1ccc(N2CCCCC2)c(S(=O)(=O)Nc2ccc(Cl)cc2)c1", "Potency": "inconclusive: 18.4 µM [cytotoxic, single point]"}, {"smiles": "Cc1c(P(=S)(c2ccccc2)c2ccccc2)[n+]2ccccc2n1C/C=C/c1ccccc1", "Potency": "active: 10.3 µM"}]}]}
